# Results from paper PMC4002113.
# These are yes or no findings as the source states them, for the method shown. Some binding calls cover weakened binding; strength is not graded here. For part of these data: Sequences can lack the tags named with a protein.
# B1: N-terminally His-tagged full-length FAF1 (protein, UniProt P54731 1-649)
# chain: MASNMDREMILADFQACTGIENIDEAITLLEQNNWDLVAAINGVIPQENGILQSDFGGETMPGPTFDPASHPAPASTPSSSAFRPVMPSRQIVERQPRMLDFRVEYRDRNVDVVLEDSCTVGEIKQILENELQIPVPKMLLKGWKTGDVEDSTVLKSLHLPKNNSLYVLTPDLPPPSSSSHAGALQESLNQNFMLIITHREVQREYNLNFSGSSTVQEVKRNVYDLTSIPVRHQLWEGWPASATDDSMCLAESGLSYPCHRLTVGRRTSPVQTREQSEEQSTDVHMVSDSDGDDFEDASEFGVDDGEVFGMASSTLRKSPMMPENAENEGDALLQFTAEFSSRYGDCHPVFFIGSLEAAFQEAFYVKARDRKLLAIYLHHDESVLTNVFCSQMLCAESIVSYLSQNFITWAWDLTKDTNRARFLTMCNRHFGSVIAQTIRTQKTDQFPLFLIIMGKRSSNEVLNVIQGNTTVDELMMRLMAAMEIFSAQQQEDIKDEDEREARENVKREQDEAYRLSLEADRAKREAHEREMAEQFRLEQIRKEQEEEREAIRLSLEQALPPEPKEENAEPVSKLRIRTPSGEFLERRFLASNKLQIVFDFVASKGFPWDEFKLLSTFPRRDVTQLDPNKSLLEVNLFPQETLFLQAKE
# modifications: NanoTemper495-N-hydroxysuccinimide blue/red dye label (in the MST only)
# B2: FAF1-CC(491–560) (domain or fragment, UniProt P54731 491-560)
# chain: QEDIKDEDEREARENVKREQDEAYRLSLEADRAKREAHEREMAEQFRLEQIRKEQEEEREAIRLSLEQAL
# B3: FAF1-UBX(550–649) (domain or fragment, UniProt P54731 550-649)
# chain: EAIRLSLEQALPPEPKEENAEPVSKLRIRTPSGEFLERRFLASNKLQIVFDFVASKGFPWDEFKLLSTFPRRDVTQLDPNKSLLEVNLFPQETLFLQAKE
# What was measured:
# [1] = molecular target: C-terminally His-tagged full-length p97 (residues 1–806) (murine) (UniProt Q01853); assay: SEC; separately purified p97, FAF1 and UN mixed in a ratio of 1:1:0.5 (with or without UN) at 50 μM, 15 min on ice, analytical Superose 6; fractions analysed by SDS-PAGE; both purified
# [2] = molecular target: C-terminally His-tagged full-length p97 (residues 1–806) (murine) (UniProt Q01853); assay: condition: p97 in the cell at 10–50 μM, titrant at 7.5 to 10 times the cell protein concentration; ITC; full-length p97 in the cell at 10–50 μM, FAF1 or FAF1 truncation as titrant at 7.5 to 10 times the cell concentration; 20 mM HEPES, 150 mM KCl, pH 7.4; 30 °C; average of two measurements; both purified
# [3] = molecular target: FAF1-UBX(550–649) (murine) (UniProt P54731); assay: cross-linking; 15 μM FAF1 or truncation in SEC buffer with ethyl glycol bissuccinimidyl succinate (EGS), 15 min at room temperature, stopped with Tris, SDS-PAGE; both purified
binder,measurement,setting,value
B1,binding,[1],binds
B2,binding,[2],no binding
B3,binding,[3],no binding (tested: 15 μM)
